Data reported in article PMC10687025.
Changes are numbered by the printed parent chain. Results are given in words; binding and its absence hold for the method and conditions named. Some entries that bind do so weakly or less than the wild type. Tags and fused reporters may be left off the sequences shown.

How the values were obtained:
Assay in all cases: two-hybrid; yeast strain L40; LexA DNA-binding domain fusions (pBTM116) against Gal4 activation domain fusions; His+ colonies patched on selective plates and assayed for β-galactosidase activity on filters; 30 °C
[1] = target: T1, Arl4A T34N fused to the LexA DNA-binding domain (UniProt P40617)
T1 sequence: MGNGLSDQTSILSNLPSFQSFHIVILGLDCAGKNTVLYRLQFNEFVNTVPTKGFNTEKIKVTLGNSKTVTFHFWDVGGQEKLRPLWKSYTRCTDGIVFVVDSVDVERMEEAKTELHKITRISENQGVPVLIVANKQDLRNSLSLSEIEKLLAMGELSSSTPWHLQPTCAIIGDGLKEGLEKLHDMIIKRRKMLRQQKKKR

[2] = target: T2, Arl4D T35N fused to the LexA DNA-binding domain (UniProt P49703)
T2 sequence: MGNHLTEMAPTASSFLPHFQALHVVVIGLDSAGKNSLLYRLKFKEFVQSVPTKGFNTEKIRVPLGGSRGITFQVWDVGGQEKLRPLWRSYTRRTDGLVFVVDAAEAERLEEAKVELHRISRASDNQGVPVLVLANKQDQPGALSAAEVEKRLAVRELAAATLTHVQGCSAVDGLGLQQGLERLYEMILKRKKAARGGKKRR

[3] = target: T3, Arl4C WT fused to the LexA DNA-binding domain (UniProt P56559)
T3 sequence: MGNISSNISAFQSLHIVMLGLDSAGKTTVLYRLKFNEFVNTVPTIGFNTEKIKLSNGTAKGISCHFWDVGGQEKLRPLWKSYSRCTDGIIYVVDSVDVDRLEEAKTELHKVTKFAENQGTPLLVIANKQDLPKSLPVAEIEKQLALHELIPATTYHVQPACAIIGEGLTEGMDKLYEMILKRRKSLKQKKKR

[4] = target: T4, Arl4C T27N fused to the LexA DNA-binding domain (UniProt P56559)
T4 sequence: T3 sequence with T27N

[5] = target: T5, Arl4D WT fused to the LexA DNA-binding domain (UniProt P49703)
T5 sequence: T2 sequence with N35T

[6] = target: T6, Arl4C Q72L fused to the LexA DNA-binding domain (UniProt P56559)
T6 sequence: T3 sequence with Q72L

[7] = target: T7, Arl4A T51N fused to the LexA DNA-binding domain (UniProt P40617)
T7 sequence: T1 sequence with N34T, T51N

[8] = target: T8, Arl4D Q80L fused to the LexA DNA-binding domain (UniProt P49703)
T8 sequence: T2 sequence with N35T, Q80L

[9] = target: T9, Arl4A WT fused to the LexA DNA-binding domain (UniProt P40617)
T9 sequence: T1 sequence with N34T

[10] = target: T10, Arl4C T44N fused to the LexA DNA-binding domain (UniProt P56559)
T10 sequence: T3 sequence with T44N

[11] = target: T11, Arl4A Q79L fused to the LexA DNA-binding domain (UniProt P40617)
T11 sequence: T1 sequence with N34T, Q79L

binding [1]: binds
binding [2]: no binding
binding [3]: no binding
binding [4]: no binding
binding [5]: no binding
binding [6]: no binding
binding [7]: binds
binding [8]: no binding
binding [9]: binds
binding [10]: no binding
binding [11]: binds
B1: Gal4 transcriptional activation domain-fused VPS36 (330–386) (domain or fragment, UniProt Q86VN1 330-386)
chain: TVSEKGSLTSEEFAKLVGMSVLLAKERLLLAEKMGHLCRDDSVEGLRFYPNLFMTQS
